Assay in all cases: proximity labelling
Assay [1] has as its target HA-BirA*-TUBB4B (human (endogenous in HeLa)) (UniProt P68371).
Assay [2] deals with TUBB4B-BirA*-HA (human (endogenous in HeLa)) (UniProt P68371).
Assay [3] concerns the target HA-BirA*-TUBB4B (human (endogenous in HeLa)) (UniProt P68371). The source holds these as a separate data set.

Amino acid sequences for entries named in this document (tags omitted).
UniProt P68371: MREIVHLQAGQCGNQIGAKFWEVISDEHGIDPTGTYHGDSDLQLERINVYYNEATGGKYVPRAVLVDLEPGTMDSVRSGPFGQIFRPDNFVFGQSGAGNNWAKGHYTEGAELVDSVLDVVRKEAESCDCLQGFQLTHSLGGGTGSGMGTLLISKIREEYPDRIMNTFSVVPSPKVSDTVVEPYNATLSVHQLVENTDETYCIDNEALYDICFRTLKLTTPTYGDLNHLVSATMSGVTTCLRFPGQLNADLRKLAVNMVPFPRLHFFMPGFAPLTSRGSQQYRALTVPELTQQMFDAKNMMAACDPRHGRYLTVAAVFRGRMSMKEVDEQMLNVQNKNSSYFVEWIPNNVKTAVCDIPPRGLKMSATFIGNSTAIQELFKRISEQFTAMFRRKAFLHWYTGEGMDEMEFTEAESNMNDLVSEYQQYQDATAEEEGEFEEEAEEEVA
UniProt Q14244: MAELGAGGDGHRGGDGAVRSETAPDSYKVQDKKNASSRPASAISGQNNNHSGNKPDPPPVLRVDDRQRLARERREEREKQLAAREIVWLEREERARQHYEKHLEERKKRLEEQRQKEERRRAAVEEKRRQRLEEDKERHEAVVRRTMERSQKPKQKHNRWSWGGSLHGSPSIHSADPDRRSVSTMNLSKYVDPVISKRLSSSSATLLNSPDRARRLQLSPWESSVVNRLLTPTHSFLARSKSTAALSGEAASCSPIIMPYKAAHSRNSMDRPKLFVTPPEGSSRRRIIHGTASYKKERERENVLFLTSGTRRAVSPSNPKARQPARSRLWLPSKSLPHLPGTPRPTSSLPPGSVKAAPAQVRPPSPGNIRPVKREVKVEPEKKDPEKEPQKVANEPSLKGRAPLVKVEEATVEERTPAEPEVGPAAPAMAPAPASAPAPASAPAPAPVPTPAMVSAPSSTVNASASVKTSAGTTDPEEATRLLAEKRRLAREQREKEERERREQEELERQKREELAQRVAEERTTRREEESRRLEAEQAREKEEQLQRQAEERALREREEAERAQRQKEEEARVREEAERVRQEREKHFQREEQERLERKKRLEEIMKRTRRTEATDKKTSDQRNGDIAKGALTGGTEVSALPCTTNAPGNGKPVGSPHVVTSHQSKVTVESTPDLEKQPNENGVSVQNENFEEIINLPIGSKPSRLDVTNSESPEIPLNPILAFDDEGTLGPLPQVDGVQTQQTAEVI
UniProt Q7Z460: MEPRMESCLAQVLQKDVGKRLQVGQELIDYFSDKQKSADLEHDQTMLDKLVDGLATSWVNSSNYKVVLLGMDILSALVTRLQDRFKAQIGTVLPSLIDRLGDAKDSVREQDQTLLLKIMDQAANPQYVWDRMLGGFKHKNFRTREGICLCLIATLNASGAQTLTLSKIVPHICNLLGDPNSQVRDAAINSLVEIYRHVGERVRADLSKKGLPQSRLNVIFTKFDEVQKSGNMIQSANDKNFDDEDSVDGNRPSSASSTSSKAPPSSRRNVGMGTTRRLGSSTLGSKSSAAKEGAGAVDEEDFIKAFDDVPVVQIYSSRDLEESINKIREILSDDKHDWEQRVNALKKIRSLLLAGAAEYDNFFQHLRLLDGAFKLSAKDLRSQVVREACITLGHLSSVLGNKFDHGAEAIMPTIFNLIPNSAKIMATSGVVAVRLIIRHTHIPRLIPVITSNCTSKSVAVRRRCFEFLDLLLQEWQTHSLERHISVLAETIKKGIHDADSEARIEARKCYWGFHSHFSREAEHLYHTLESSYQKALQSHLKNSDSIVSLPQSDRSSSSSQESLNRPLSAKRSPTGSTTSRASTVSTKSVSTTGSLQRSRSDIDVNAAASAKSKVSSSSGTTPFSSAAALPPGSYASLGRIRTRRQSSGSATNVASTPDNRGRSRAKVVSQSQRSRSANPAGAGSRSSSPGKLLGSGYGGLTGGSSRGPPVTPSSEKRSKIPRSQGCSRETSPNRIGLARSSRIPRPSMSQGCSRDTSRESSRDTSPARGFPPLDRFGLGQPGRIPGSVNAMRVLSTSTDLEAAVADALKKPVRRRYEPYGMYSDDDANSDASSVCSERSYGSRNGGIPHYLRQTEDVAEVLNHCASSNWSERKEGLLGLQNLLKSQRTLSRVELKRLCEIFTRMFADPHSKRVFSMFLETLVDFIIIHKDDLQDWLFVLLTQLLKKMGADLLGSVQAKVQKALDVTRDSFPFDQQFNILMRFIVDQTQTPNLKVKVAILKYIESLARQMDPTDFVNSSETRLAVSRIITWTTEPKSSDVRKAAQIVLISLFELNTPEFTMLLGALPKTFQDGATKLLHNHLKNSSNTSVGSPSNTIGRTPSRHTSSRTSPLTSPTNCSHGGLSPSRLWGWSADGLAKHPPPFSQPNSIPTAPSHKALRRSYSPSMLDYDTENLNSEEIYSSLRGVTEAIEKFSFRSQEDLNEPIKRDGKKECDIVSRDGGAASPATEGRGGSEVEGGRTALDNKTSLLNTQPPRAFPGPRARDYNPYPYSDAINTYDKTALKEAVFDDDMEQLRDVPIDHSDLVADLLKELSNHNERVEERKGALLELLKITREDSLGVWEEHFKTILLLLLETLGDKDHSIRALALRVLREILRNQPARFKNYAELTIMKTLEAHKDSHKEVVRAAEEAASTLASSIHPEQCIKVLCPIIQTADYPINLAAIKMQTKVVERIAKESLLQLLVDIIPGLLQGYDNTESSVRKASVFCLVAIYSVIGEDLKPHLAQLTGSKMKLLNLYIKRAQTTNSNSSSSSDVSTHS
UniProt Q1MSJ5: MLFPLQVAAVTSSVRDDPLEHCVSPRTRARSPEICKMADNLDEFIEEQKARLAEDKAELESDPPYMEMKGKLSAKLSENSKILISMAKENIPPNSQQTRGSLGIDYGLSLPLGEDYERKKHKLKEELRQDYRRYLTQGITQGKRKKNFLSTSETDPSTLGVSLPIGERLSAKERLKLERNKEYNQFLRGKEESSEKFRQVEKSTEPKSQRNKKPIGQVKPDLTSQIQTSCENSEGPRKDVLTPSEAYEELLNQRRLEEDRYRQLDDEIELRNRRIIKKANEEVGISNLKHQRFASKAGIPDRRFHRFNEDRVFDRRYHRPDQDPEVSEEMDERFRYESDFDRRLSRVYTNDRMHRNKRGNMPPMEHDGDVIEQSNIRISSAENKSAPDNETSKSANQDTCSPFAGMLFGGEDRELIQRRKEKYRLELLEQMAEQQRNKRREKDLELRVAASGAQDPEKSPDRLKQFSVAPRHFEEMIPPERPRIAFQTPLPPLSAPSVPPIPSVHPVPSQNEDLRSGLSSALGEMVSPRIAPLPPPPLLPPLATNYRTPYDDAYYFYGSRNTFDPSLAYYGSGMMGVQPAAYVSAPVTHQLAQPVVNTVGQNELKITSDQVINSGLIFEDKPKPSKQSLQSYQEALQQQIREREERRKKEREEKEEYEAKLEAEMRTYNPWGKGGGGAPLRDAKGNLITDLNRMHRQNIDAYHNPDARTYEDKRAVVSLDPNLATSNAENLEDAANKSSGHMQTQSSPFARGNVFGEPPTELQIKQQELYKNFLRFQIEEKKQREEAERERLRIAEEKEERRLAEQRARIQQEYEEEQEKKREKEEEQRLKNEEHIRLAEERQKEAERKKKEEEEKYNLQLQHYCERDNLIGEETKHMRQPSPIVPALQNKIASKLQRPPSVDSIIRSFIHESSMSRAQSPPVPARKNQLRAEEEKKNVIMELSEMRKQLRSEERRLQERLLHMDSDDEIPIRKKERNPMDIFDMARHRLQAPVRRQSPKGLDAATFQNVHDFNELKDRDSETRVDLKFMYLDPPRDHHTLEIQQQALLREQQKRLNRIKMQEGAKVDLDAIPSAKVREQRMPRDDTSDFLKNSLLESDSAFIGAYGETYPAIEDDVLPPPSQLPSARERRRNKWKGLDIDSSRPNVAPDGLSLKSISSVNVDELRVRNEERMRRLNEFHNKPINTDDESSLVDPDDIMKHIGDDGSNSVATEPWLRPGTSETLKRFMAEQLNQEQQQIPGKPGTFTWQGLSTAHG
UniProt P27816: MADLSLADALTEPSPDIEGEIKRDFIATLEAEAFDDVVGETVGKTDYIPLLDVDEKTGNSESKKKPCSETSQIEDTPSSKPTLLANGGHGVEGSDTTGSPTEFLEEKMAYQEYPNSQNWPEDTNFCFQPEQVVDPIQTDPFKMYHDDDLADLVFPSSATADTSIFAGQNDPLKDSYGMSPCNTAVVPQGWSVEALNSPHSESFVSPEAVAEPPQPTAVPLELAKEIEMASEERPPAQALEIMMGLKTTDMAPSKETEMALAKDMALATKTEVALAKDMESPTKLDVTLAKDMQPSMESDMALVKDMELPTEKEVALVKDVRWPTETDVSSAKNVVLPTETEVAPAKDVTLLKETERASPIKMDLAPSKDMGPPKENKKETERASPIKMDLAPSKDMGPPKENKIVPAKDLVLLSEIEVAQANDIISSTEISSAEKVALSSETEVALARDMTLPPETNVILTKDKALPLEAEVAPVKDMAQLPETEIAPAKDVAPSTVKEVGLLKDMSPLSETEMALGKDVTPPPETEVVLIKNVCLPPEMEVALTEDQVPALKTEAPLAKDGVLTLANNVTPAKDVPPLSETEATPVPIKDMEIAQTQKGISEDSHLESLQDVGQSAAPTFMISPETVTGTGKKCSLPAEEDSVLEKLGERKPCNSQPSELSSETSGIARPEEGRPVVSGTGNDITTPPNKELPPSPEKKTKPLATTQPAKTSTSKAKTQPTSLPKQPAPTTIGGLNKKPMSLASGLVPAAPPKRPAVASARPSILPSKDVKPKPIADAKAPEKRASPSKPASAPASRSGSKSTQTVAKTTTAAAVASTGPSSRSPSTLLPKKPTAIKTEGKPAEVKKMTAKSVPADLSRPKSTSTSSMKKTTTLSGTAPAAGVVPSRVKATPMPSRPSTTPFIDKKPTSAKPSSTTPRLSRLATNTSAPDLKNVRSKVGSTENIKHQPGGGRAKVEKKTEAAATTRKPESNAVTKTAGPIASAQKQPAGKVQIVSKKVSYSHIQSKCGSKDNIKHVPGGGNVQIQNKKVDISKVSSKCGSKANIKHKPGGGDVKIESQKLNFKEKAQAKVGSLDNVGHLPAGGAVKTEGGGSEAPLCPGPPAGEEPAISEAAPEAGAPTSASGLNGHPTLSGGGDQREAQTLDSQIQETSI

Like-named read-outs stand apart in the source and are kept apart here. Results are given in words; binding and its absence hold for the method and conditions named. Binding seen in cells or lysates may run through a third protein. These calls come from enrichment with a bait or labelling near it, and not all partners need be listed. For part of these data: Where a sequence is shown, tags or fusion partners need not be part of it.

As to “MEC17-Flag (from UniProt Q5SQI0-1 1-421) (enzyme)”, in assay [1], the binding entry was “binds”.

In the case of MAP7 (from UniProt Q14244 1-749), the binding entry in assay [2] is reported as “binds”.

Consider “Flag-mEGFP-MAP6 (from UniProt Q96JE9-1 1-813)”, for which, in assay [1], the binding entry is given as “binds”.

Take CLASP1 (from UniProt Q7Z460 1-1538): the binding entry in assay [2] is “binds”.

With “CSPP1 (endogenous) (from UniProt Q1MSJ5 1-1256)”, in assay [1], the binding entry is reported as “binds”.

With MAP4 (from UniProt P27816 1-1152), the binding entry in assay [2] is recorded as “binds”.

B1: Flag-copGFP-JPT2 (178-190 a.a.) (domain or fragment)
chain: LNPPGGKSSISFY
For the molecule B1, the binding entry in assay [3] was “binds”.

B2: Flag-mEGFP-JPT2 (protein, UniProt Q9H910-1 1-190)
chain: MFQVPDSEGGRAGSRAMKPPGGESSNLFGSPEEATPSSRPNRMASNIFGPTEEPQNIPKRTNPPGGKGSGIFDESTPVQTRQHLNPPGGKTSDIFGSPVTATSRLAHPNKPKDHVFLCEGEEPKSDLKAARSIPAGAEPGEKGSARKAGPAKEQEPMPTVDSHEPRLGPRPRSHNKVLNPPGGKSSISFY
For B2, in assay [3], the binding result is on record as “binds”.

B3: Jupiter microtubule-associated homolog 2 (JPT2), endogenous (protein, UniProt Q9H910 1-190)
chain: B2 chain
Take B3: in assay [3], the binding entry is listed as “binds”.

B4: Flag-copGFP-JPT2 (protein, UniProt Q9H910-1 1-190)
chain: B2 chain
With B4, the binding entry in assay [3] is reported as “binds”.

B5: JPT1 (endogenous) (protein, UniProt Q9UK76 1-154)
chain: MTTTTTFKGVDPNSRNSSRVLRPPGGGSNFSLGFDEPTEQPVRKNKMASNIFGTPEENQASWAKSAGAKSSGGREDLESSGLQRRNSSEASSGDFLDLKGEGDIHENVDTDLPGSLGQSEEKPVPAAPVPSPVAPAPVPSRRNPPGGKSSLVLG
For B5, in assay [3], the binding result was “binds”.

B6: Flag-copGFP-JPT1 (protein, UniProt Q9UK76-1 1-154)
chain: B5 chain
For the molecule B6, in assay [3], the binding result is recorded as “binds”.

(Values after paper doi:10.1101/2025.01.12.632577.)
